# Measured values as given in the supplement of paper PMC4604168 (melanoma cell lines).
# This is one part of the list. Many values rest on one well or one pass, so single values are uncertain.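 Imaging used 1,536-well plates; nuclei positive for cleaved PARP by antibody were divided by total DNA-stained nuclei to yield the apoptosis fraction. Doses for screening kept most cells viable, and cell lines differ markedly in resting and induced cleaved-PARP levels.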
# Test system: G361
# Assay: cleaved PARP positive nuclei fraction relative to DMSO control; melanoma cells; higher = more apoptosis
# Details: library dose: low library concentration; 72 h
row,SMILES,cleaved PARP positive nuclei fraction [%]
1,"Cn1c(=O)n(-c2ccc(C(C)(C)C#N)cc2)c2c3cc(-c4cnc5ccccc5c4)ccc3ncc21 + CN1CCN(c2ccc3nc(-c4c(N)c5c(F)cccc5[nH]c4=O)[nH]c3c2)CC1 [Dovitinib] (first compound 0.004 µM, partner dose 0.1 µM)",111
2,"O=C(O)c1ccc2c(c1)nc(Nc1cccc(Cl)c1)c1ccncc12 + COc1ccc(Cl)c(Nc2nc3ccccc3nc2NS(=O)(=O)c2cccc(NC(=O)C(C)(C)N)c2)c1 [XL147] (first compound 0.4 µM, partner dose 0.8 µM)",131
3,"CNC(=O)c1cc(Oc2ccc(NC(=O)Nc3ccc(Cl)c(C(F)(F)F)c3)cc2)ccn1 [sorafenib] + OCc1c[nH]c2ccccc12 [Indole-3-carbinol] (first compound 0.4 µM, partner dose 0.8 µM)",129
4,"CO[C@H]1C[C@@H]2CC[C@@H](C)[C@@](O)(O2)C(=O)C(=O)N2CCCC[C@H]2C(=O)O[C@H]([C@H](C)C[C@@H]2CC[C@@H](OCCO)[C@H](OC)C2)CC(=O)[C@H](C)/C=C(\C)[C@@H](O)[C@@H](OC)C(=O)[C@H](C)C[C@H](C)/C=C/C=C/C=C/1C [everolimus] + O=C(O)c1ccc2c(c1)nc(Nc1cccc(Cl)c1)c1ccncc12 [CX4945] (first compound 0.02 µM, partner dose 0.4 µM)",139
5,"Cn1c(=O)n(-c2ccc(C(C)(C)C#N)cc2)c2c3cc(-c4cnc5ccccc5c4)ccc3ncc21 + O=C(O)c1ccc2c(c1)nc(Nc1cccc(Cl)c1)c1ccncc12 [CX4945] (first compound 0.004 µM, partner dose 0.4 µM)",36.2
6,"CNC(=O)c1cc(Oc2ccc(NC(=O)Nc3ccc(Cl)c(C(F)(F)F)c3)cc2)ccn1 [sorafenib] + Cn1c(Nc2ccc(C(F)(F)F)cc2)nc2cc(Oc3ccnc(-c4ncc(C(F)(F)F)[nH]4)c3)ccc21 [CHIR265] (first compound 0.4 µM, partner dose 0.08 µM)",110
7,"Cc1cc(Nc2cc(N3CCN(C)CC3)nc(/C=C/c3ccccc3)n2)n[nH]1 + NC1(c2ccc(-c3nc4ccn5c(=O)[nH]nc5c4cc3-c3ccccc3)cc2)CCC1 [MK2206] (first compound 0.04 µM, partner dose 0.4 µM)",121
8,"CC(C)C[C@H](NC(=O)[C@H](Cc1ccccc1)NC(=O)c1cnccn1)B(O)O [Bortezomib] + CS(=O)(=O)CCNCc1ccc(-c2ccc3ncnc(Nc4ccc(OCc5cccc(F)c5)c(Cl)c4)c3c2)o1 [lapatinib] (first compound 0.001 µM, partner dose 0.8 µM)",4040
9,"CO[C@H]1C[C@@H]2CC[C@@H](C)[C@@](O)(O2)C(=O)C(=O)N2CCCC[C@H]2C(=O)O[C@H]([C@H](C)C[C@@H]2CC[C@@H](OCCO)[C@H](OC)C2)CC(=O)[C@H](C)/C=C(\C)[C@@H](O)[C@@H](OC)C(=O)[C@H](C)C[C@H](C)/C=C/C=C/C=C/1C [everolimus] + Cn1nnc2c(C(N)=O)ncn2c1=O [temozolomide] (first compound 0.02 µM, partner dose 2 µM)",88.1
10,"O=C(O)[C@@H]1[O][Sb](=[O])([O][Sb]2(=[O])[O][C@H]([C@H](O)CO)[C@H](O)[C@H](C(=O)O)[O]2)[O][C@H]([C@H](O)CO)[C@@H]1O (some centres not stated) [stibogluconate] + C#Cc1cccc(Nc2ncnc3cc(OCCOC)c(OCCOC)cc23)c1 [erlotinib] (first compound 2 µM, partner dose 0.8 µM)",86.2
11,"C=C(c1ccc(C(=O)O)cc1)c1cc2c(cc1C)C(C)(C)CCC2(C)C [Bexarotene] + Nc1nc(F)nc2c1ncn2[C@@H]1O[C@H](CO)[C@@H](O)[C@@H]1O [fludarabine] (first compound 2 µM, partner dose 0.2 µM)",18.2
12,"CNC(=O)c1cc(Oc2ccc(NC(=O)Nc3ccc(Cl)c(C(F)(F)F)c3)cc2)ccn1 [sorafenib] + C=CCNC1=C2C[C@@H](C)C[C@H](OC)[C@H](O)[C@@H](C)/C=C(\C)[C@H](OC(N)=O)[C@@H](OC)/C=C\C=C(/C)C(=O)NC(=CC1=O)C2=O [Tanespimycin] (first compound 0.4 µM, partner dose 0.002 µM)",73
13,"Cn1c(=O)n(-c2ccc(C(C)(C)C#N)cc2)c2c3cc(-c4cnc5ccccc5c4)ccc3ncc21 + Nc1ncn([C@H]2C[C@H](O)[C@@H](CO)O2)c(=O)n1 [decitabine] (first compound 0.004 µM, partner dose 0.1 µM)",192
14,"CC(C)C[C@H](NC(=O)[C@H](Cc1ccccc1)NC(=O)c1cnccn1)B(O)O [Bortezomib] + C=C(c1ccc(C(=O)O)cc1)c1cc2c(cc1C)C(C)(C)CCC2(C)C [Bexarotene] (first compound 0.001 µM, partner dose 2 µM)",5390
15,"CCCS(=O)(=O)Nc1ccc(F)c(C(=O)c2c[nH]c3ncc(Cl)cc23)c1F + COCC[n+]1c2c(n(Cc3cnccn3)c1C)C(=O)c1ccccc1C2=O [YM155] (first compound 0.08 µM, partner dose 0.0004 µM)",82.2
16,"CN1CCN(c2ccc3nc(-c4c(N)c5c(F)cccc5[nH]c4=O)[nH]c3c2)CC1 [Dovitinib] + Cn1c(Nc2ccc(C(F)(F)F)cc2)nc2cc(Oc3ccnc(-c4ncc(C(F)(F)F)[nH]4)c3)ccc21 [CHIR265] (first compound 0.1 µM, partner dose 0.08 µM)",58.8
17,"Cn1c(=O)n(-c2ccc(C(C)(C)C#N)cc2)c2c3cc(-c4cnc5ccccc5c4)ccc3ncc21 + Cn1nnc2c(C(N)=O)ncn2c1=O [temozolomide] (first compound 0.004 µM, partner dose 2 µM)",100
18,"CC(C)C[C@H](NC(=O)[C@H](Cc1ccccc1)NC(=O)c1cnccn1)B(O)O [Bortezomib] + C[C@@H](Oc1cc(-c2cnn(C3CCNCC3)c2)cnc1N)c1c(Cl)ccc(F)c1Cl [Crizotinib] (first compound 0.001 µM, partner dose 0.2 µM)",3330
19,"O=C(O)[C@@H]1[O][Sb](=[O])([O][Sb]2(=[O])[O][C@H]([C@H](O)CO)[C@H](O)[C@H](C(=O)O)[O]2)[O][C@H]([C@H](O)CO)[C@@H]1O (some centres not stated) [stibogluconate] + OCc1c[nH]c2ccccc12 [Indole-3-carbinol] (first compound 2 µM, partner dose 0.8 µM)",95.2
20,"C=C(c1ccc(C(=O)O)cc1)c1cc2c(cc1C)C(C)(C)CCC2(C)C [Bexarotene] + Cn1nnc2c(C(N)=O)ncn2c1=O [temozolomide] (first compound 2 µM, partner dose 2 µM)",122
21,"Nc1ncn([C@H]2C[C@H](O)[C@@H](CO)O2)c(=O)n1 [decitabine] + C[C@]1(c2nc3c(C(N)=O)cccc3[nH]2)CCCN1 [Veliparib] (first compound 0.1 µM, partner dose 1.4 µM)",118
22,"CN1CCN(c2ccc3nc(-c4c(N)c5c(F)cccc5[nH]c4=O)[nH]c3c2)CC1 [Dovitinib] + Nc1nc(F)nc2c1ncn2[C@@H]1O[C@H](CO)[C@@H](O)[C@@H]1O [fludarabine] (first compound 0.1 µM, partner dose 0.2 µM)",74.9
23,"CO[C@H]1C[C@@H]2CC[C@@H](C)[C@@](O)(O2)C(=O)C(=O)N2CCCC[C@H]2C(=O)O[C@H]([C@H](C)C[C@@H]2CC[C@@H](OCCO)[C@H](OC)C2)CC(=O)[C@H](C)/C=C(\C)[C@@H](O)[C@@H](OC)C(=O)[C@H](C)C[C@H](C)/C=C/C=C/C=C/1C [everolimus] + Clc1ccc(Nc2nnc(Cc3ccncc3)c3ccccc23)cc1 [vatalanib] (first compound 0.02 µM, partner dose 2 µM)",411
24,"CO[C@H]1C[C@@H]2CC[C@@H](C)[C@@](O)(O2)C(=O)C(=O)N2CCCC[C@H]2C(=O)O[C@H]([C@H](C)C[C@@H]2CC[C@@H](OCCO)[C@H](OC)C2)CC(=O)[C@H](C)/C=C(\C)[C@@H](O)[C@@H](OC)C(=O)[C@H](C)C[C@H](C)/C=C/C=C/C=C/1C [everolimus] + C#Cc1cccc(Nc2ncnc3cc(OCCOC)c(OCCOC)cc23)c1 [erlotinib] (first compound 0.02 µM, partner dose 0.8 µM)",147
25,"CS(=O)(=O)CCNCc1ccc(-c2ccc3ncnc(Nc4ccc(OCc5cccc(F)c5)c(Cl)c4)c3c2)o1 [lapatinib] + OCc1c[nH]c2ccccc12 [Indole-3-carbinol] (first compound 0.8 µM, partner dose 0.8 µM)",143
26,"C[C@@H](Oc1cc(-c2cnn(C3CCNCC3)c2)cnc1N)c1c(Cl)ccc(F)c1Cl [Crizotinib] + Nc1ccn([C@@H]2O[C@H](CO)[C@@H](O)C2(F)F)c(=O)n1 [gemcitabine] (first compound 0.2 µM, partner dose 0.0004 µM)",106
27,"O=C(O)[C@@H]1[O][Sb](=[O])([O][Sb]2(=[O])[O][C@H]([C@H](O)CO)[C@H](O)[C@H](C(=O)O)[O]2)[O][C@H]([C@H](O)CO)[C@@H]1O (some centres not stated) [stibogluconate] + COc1ccc(Cl)c(Nc2nc3ccccc3nc2NS(=O)(=O)c2cccc(NC(=O)C(C)(C)N)c2)c1 [XL147] (first compound 2 µM, partner dose 0.8 µM)",142

# Already shown: an excerpt of the list.
row,SMILES,cleaved PARP positive nuclei fraction [%]
2,"O=C(O)c1ccc2c(c1)nc(Nc1cccc(Cl)c1)c1ccncc12 + COc1ccc(Cl)c(Nc2nc3ccccc3nc2NS(=O)(=O)c2cccc(NC(=O)C(C)(C)N)c2)c1 [XL147] (first compound 0.4 µM, partner dose 0.8 µM)",131
3,"CNC(=O)c1cc(Oc2ccc(NC(=O)Nc3ccc(Cl)c(C(F)(F)F)c3)cc2)ccn1 [sorafenib] + OCc1c[nH]c2ccccc12 [Indole-3-carbinol] (first compound 0.4 µM, partner dose 0.8 µM)",129
